According to US7125969, “ETS-related gene overexpressed in human breast and epithelial cancers” (The Regents of the University of California):
Protein sequences can lack the tags named with them. For some assays here: The exact form of at least one protein or probe is not confirmed.

How the values were obtained:
[1] = target: T1, ESX (full-length, His-tagged) (Homo sapiens) (UniProt P78545); experiment: footprint; settings: DNase I footprint with hypersensitive site; ~10 ng protein, room temperature; purified recombinant protein; protein details: His-tag (pRSETA), E. coli BL21(DE3)pLysS; label: antisense strand labeled at SmaI site; only the site is given
T1 sequence: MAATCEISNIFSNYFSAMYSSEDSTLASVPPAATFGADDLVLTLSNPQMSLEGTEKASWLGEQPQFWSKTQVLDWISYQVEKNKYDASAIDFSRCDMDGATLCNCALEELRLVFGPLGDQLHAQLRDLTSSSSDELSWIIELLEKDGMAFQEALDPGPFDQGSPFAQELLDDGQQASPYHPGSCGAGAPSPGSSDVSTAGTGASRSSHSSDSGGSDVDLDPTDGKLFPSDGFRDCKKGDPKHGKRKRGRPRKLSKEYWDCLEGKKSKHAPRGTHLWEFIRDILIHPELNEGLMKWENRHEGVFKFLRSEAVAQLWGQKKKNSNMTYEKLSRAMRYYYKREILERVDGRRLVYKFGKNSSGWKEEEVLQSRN

[2] = target: T2, ESX (full-length, expressed in COS cells) (Homo sapiens) (UniProt P78545); experiment: activity in cells; settings: CAT reporter induced in COS cells; protein in cells; protein details: pcDNA1/Amp expression; only the site is given
T2 sequence: T1 sequence

Sequence	binding result [1]	activity on this sequence [2]
ATACTTCCTCAAGCA (double strand)	binds	–
GGAGGAGGGCTGCTTGAGGAAGTATAAGAAT (double strand) [3xTA5 reporter (p3TA5-BLCAT5)]	–	active
